Assay results from PMC8458385.
These are yes or no findings as the source states them, for the method shown.

The chains behind the UniProt entries cited, without tags or fusion partners. Where a name states a change or a piece, a line headed by the entry shows the natural chain unless it says otherwise.
UniProt O76616: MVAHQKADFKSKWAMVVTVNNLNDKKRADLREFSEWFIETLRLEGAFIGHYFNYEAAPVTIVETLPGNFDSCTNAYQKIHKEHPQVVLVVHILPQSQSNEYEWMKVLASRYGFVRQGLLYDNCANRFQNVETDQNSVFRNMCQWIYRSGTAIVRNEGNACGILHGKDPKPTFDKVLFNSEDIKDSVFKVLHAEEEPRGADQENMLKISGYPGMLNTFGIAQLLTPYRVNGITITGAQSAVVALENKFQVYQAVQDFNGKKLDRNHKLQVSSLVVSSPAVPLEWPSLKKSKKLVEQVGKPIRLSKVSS

Molecular target: T1, ERH-2 (C. elegans) (UniProt Q20057)
T1 sequence: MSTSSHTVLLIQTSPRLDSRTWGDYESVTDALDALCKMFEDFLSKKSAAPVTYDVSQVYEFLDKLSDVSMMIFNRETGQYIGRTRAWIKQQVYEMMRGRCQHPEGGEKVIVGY
Assay: SEC; ERH-2 and TOFU-6^RRM mixed with PICS-1 5-282, PICS-1 5-200 or PICS-1 ΔEBM; Superose 6 Increase 10/300 GL; 20 mM Tris pH 8.5, 200 mM NaCl; peaks analysed by SDS-PAGE; both purified

binding: no binding
Substance: PICS-1^5-282 with EBM deleted (PICS-1^ΔEBM) (from UniProt O76616) (domain or fragment)
